PubChem BioAssay AID1259254 – NCATS, 2017

Assay: 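Gene knock-downs that lead to re-replication, shown by excess G2 DNA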 (primary screen)
Cell system: human HCT116 colorectal cancer cells
Reagents: single siRNA against human genes
Time to read-out: 3 days
Measured: 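Nuclei stained with Hoechst and imaged; cell-cycle phase assigned by DNA content; G2 share scaled per plate, non-targeting siRNA 0%, GMNN siRNA 100%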
Scale: G2 robust z-score and G2 cells, % of GMNN control: higher = more G2 cells, more excess DNA replication; raw share of cells in G2: higher = larger share of cells with G2 DNA content
Call rule: 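An siRNA counts as active if its G2 robust z-score lies at least 5 MADs above the screen median; here such calls match roughly 38% of GMNN control or more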
This is one part, drawn at random, of about 59,000 deposited reagents. About 1,550 of all reagents (2.6%) count as active. 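G2 share is only a proxy for re-replication; each gene was hit by three separate siRNAs, and active genes were retested.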 Raw values are not corrected between plates. Entries without a mark were called inactive. The numbers tell different reagents against one gene apart. No sequences are given here. Not given: the amount of reagent.

Gene,siRNA no.,G2 robust z-score,"G2 cells, % of GMNN control",raw share of cells in G2 (%)
FOXP3,1,-0.814,-2.76,4.7
FOXP3,2,0.449,6.13,6.51
FOXP3,3,0.0918,3.61,5.19
PLPPR3,1,-0.128,2.07,5.21
PLPPR3,2,5.34 (active),40.5,13.5
PLPPR3,3,-0.354,0.478,4.64
RCSD1,1,-0.788,-2.58,2.99
RCSD1,2,1.98,16.9,8.31
RCSD1,3,6.53 (active),48.9,18.4
MYOZ1,1,1.14,11,8.68
MYOZ1,2,0.00898,3.03,5.91
MYOZ1,3,-0.38,0.295,3.12
C15orf62,1,-0.16,1.84,4.34
C15orf62,2,0.0989,3.66,4.59
C15orf62,3,0.0797,3.53,4.17
RND3,1,2.7,22,12.9
RND3,2,-0.138,2,4.73
RND3,3,0.691,7.83,7.38
RASGRP3,1,0.128,3.87,7.92
RASGRP3,2,-0.266,1.1,4.55
RASGRP3,3,0.681,7.76,6.53
RFLNB,1,-0.578,-1.1,3.61
RFLNB,2,0.751,8.25,6.87
RFLNB,3,0.175,4.2,5.88
SEMA3C,1,0.155,4.06,7.16
SEMA3C,2,1.44,13.1,9.42
SEMA3C,3,-0.53,-0.763,3.13
B3GALNT2,1,1.35,12.5,11.9
B3GALNT2,2,-0.437,-0.109,4.66
B3GALNT2,3,2.21,18.5,12.5
LACTB2,1,0.78,8.46,7.08
LACTB2,2,0.991,9.94,8.31
LACTB2,3,5.03 (active),38.3,15.3

Records listed so far whose gene name starts with L or l (3):
Gene,siRNA no.,G2 robust z-score,"G2 cells, % of GMNN control",raw share of cells in G2 (%)
LACTB2,1,0.78,8.46,7.08
LACTB2,2,0.991,9.94,8.31
LACTB2,3,5.03 (active),38.3,15.3

Next results follow.
Gene,siRNA no.,G2 robust z-score,"G2 cells, % of GMNN control",raw share of cells in G2 (%)
LOC649201 (retired record),1,0.328,5.27,5.62
LOC649201 (retired record),2,0.033,3.2,4.35
LOC649201 (retired record),3,-0.312,0.773,3.01
FTHL18P,1,5.35 (active),40.6,18.8
FTHL18P,2,1.53,13.7,7.78
FTHL18P,3,0.316,5.19,5.63
KRT86,1,0.268,4.85,5.44
KRT86,2,0.631,7.41,5.91
KRT86,3,-0.673,-1.77,2.25
KRT86,4,0.722,8.05,5.85
KRT86,5,-1.33,-6.39,2.89
KRT86,6,-1.21,-5.53,3.28
NEU1,1,3.12,24.9,11.4
NEU1,2,-0.843,-2.97,4.21
NEU1,3,5.11 (active),38.9,20.9
MAPK11,1,1.79,15.6,10.8
MAPK11,2,-1.19,-5.43,3.58
MAPK11,3,-0.761,-2.39,3.18
TMEM185A,1,-1.07,-4.54,2.6
TMEM185A,2,-0.601,-1.26,3.08
TMEM185A,3,0.17,4.16,3.67
CBS,1,4.31,33.3,16.9
CBS,2,-0.887,-3.28,3.6
CBS,3,-0.149,1.92,4.71
BACE2,1,1.11,10.8,9.33
BACE2,2,2.87,23.2,13.1
BACE2,3,-0.239,1.29,4.39
RAD18,1,2.6,21.3,15.8
RAD18,2,-0.305,0.819,4.73
RAD18,3,-0.476,-0.384,4.17
RPL23AP25,1,0.164,4.12,4
RPL23AP25,2,-0.241,1.27,3.88
RPL23AP25,3,4.81,36.8,16.7
CARS2,1,-0.605,-1.29,5.11
CARS2,2,0.258,4.78,6.04
CARS2,3,0.621,7.34,6.89
KCNA4,1,2.23,18.6,12.1
KCNA4,2,0.186,4.28,6.23
KCNA4,3,-1.4,-6.85,1.7
OR56B4,1,-0.609,-1.32,3.13
OR56B4,2,-1.07,-4.53,1.44
OR56B4,3,3.35,26.6,11.2
IFI44,1,0.302,5.09,7.63
IFI44,2,-0.592,-1.2,3.44
IFI44,3,3.39,26.8,13.2
TGM1,1,0.908,9.36,7.05
TGM1,2,-0.251,1.2,6.09
TGM1,3,1.95,16.7,10.3
BUD31,1,-0.512,-0.635,3.32
BUD31,2,0.906,9.34,10.1
BUD31,3,1.72,15,9.64
BTN3A1,1,-0.0877,2.35,4.67
BTN3A1,2,-1.2,-5.45,4.18
BTN3A1,3,1.69,14.8,9.12
